# About 6,000 (1.7%) of roughly 350,000 compounds were called active. Inconclusive means that the source gave no clear call. Such entries were picked first, then a sample of the others. Cut-off read from the data, not from the text of the source: active = CPE inhibition above about 20% (passing the limit was not always enough); inconclusive = no clear call, values can overlap the other calls; tested in BHK-21 cells.
# Assay: protection of cells from dengue 2 killing – plate reader, single concentration, primary screen (AID 651640);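 note: 0% = median of neutral control wells and 100% = median of positive control wells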
# Conditions: DENV2-infected cells, cytopathic effect rescue, at 9.99 µM, active compounds read high
row,Structure (SMILES),CPE inhibition
1,O=C(CN1C(=O)NC2(CCc3ccccc3C2)C1=O)Nc1ccc(Cl)cc1F (stereo unspecified),inconclusive: 29.5%
2,CC(C)(C)Cc1c(-c2cccc(Br)c2)nc2ccc(Cl)cn12,inconclusive: 31.9%
3,O=C1OC[C@@H]2CCCN2C(=O)[C@@H](CC(=O)N(CCO)Cc2ccccc2)C/C=C\C[C@H]1Cc1ccc(F)cc1,inactive: -1.69%
4,O=C(NCCc1c[nH]c2ccccc12)/C(=C\c1cccnc1)NC(=O)c1ccccc1Br,active: 41.5%
5,CCN(CC)CCNCc1cc(Br)ccc1OCC(=O)NCc1ccccc1,inactive: 14.1%
6,CCCCCc1cc(=O)[nH]c(=S)[nH]1,inconclusive: 38.1%
7,N#C/C(=C/C1=C(N2CCOCC2)C(=C/c2ccc(Cl)cc2Cl)/CC1)C(=O)Nc1ccccc1F,inconclusive: 51.7%
8,Cc1noc(C)c1NC(=O)N(C)C[C@H]1OCCCC[C@H](C)Oc2ccc(NC(=O)NC(C)C)cc2C(=O)N([C@H](C)CO)C[C@@H]1C,active: 102%
9,CC(=O)Nc1ccccc1S(=O)(=O)CC1CC1(Cl)Cl (stereo unspecified),inconclusive: 32.9%
10,CCN(C(=S)NC(=O)C1CC1)c1ccccc1,inconclusive: 20.5%
11,COc1ccc(S(=O)(=O)N2CCN(C(=O)CCNC(=O)c3ccccc3Cl)CC2)cc1,inconclusive: 28.4%
12,Cc1nc(N)c(CC(Br)CBr)c(Cl)n1 (stereo unspecified),inconclusive: 39.3%
13,COc1ccc(C(NC(=O)c2c(F)c(F)c(F)c(F)c2F)c2ccccc2)cc1 (stereo unspecified),inactive: 2.22%
14,CC(C)CNC(=S)Nc1ccc(Oc2ccccc2)cc1,inactive: 12.6%
15,Cn1cc(Cl)c(/C=C(\C#N)S(=O)(=O)c2ccccc2)n1,inconclusive: 23.3%
16,CC(=O)C1=C(c2ccccc2)NC(=O)NC1c1ccc(O)c(O)c1 (stereo unspecified),inconclusive: 21.2%
17,O=C(NS(=O)(=O)c1cccs1)[C@H]1O[C@@H](n2ccc(=O)[nH]c2=O)[C@H](O)[C@@H]1O,active: 77.5%
18,Cc1ccc(C2CC(c3cccc(C)c3)n3nc(N)nc3N2)cc1 (stereo unspecified),inconclusive: 52%
19,C[C@@H]1CN([C@@H](C)CO)S(=O)(=O)c2ccc(Br)cc2O[C@@H]1CN(C)S(=O)(=O)c1ccc(F)cc1,inconclusive: 21.5%
20,O=C(COC(=O)c1cc(S(=O)(=O)N2CCOCC2)c(Cl)cc1Cl)NCc1ccco1,inconclusive: 20.6%
21,COc1ccc(NC(=O)c2cc(-c3ccc(C)c(C)c3O)n[nH]2)cc1Cl,inconclusive: 44.5%
22,C[C@@H]1CCCCO[C@@H](CN(C)C)[C@@H](C)CN([C@H](C)CO)C(=O)c2cc(NC(=O)Nc3ccc(C(F)(F)F)cc3)ccc2O1,inconclusive: 38%
23,C[C@H]1CCCCO[C@H](CN(C)C(=O)NC2CCCCC2)[C@@H](C)CN([C@@H](C)CO)C(=O)c2cc(NC(=O)Nc3ccc(F)cc3)ccc2O1,active: 31.7%

# Compounds above containing a cyano group:
row,Structure (SMILES),CPE inhibition
7,N#C/C(=C/C1=C(N2CCOCC2)C(=C/c2ccc(Cl)cc2Cl)/CC1)C(=O)Nc1ccccc1F,inconclusive: 51.7%
15,Cn1cc(Cl)c(/C=C(\C#N)S(=O)(=O)c2ccccc2)n1,inconclusive: 23.3%

# Following part.

row,Structure (SMILES),CPE inhibition
1,CN(C)c1ccc(-c2noc(C3CCN(S(=O)(=O)c4cccc(C(=O)O)c4)CC3)n2)cc1,inconclusive: 20.1%
2,CCn1c(=S)sc2c(=O)n(CC(=O)Nc3ccccc3C(F)(F)F)c(C)nc21,inconclusive: 23.7%
3,O=C(O)CC(O)(CC(=O)O)C(=O)O,inconclusive: 77.5%
4,Cc1ccc(S(=O)(=O)N(C)C[C@@H]2OCCCC[C@@H](C)Oc3ccc(NC(=O)Nc4ccc(F)cc4)cc3C(=O)N([C@H](C)CO)C[C@H]2C)cc1,inconclusive: 32.4%
5,COc1ccccc1S(=O)(=O)N[C@@H]1C=C[C@H](CC(=O)NCc2cccc(F)c2)O[C@H]1CO,active: 41.8%
6,CNC[C@@H]1Oc2ccc(NS(=O)(=O)c3ccc(C)cc3)cc2CC(=O)N([C@@H](C)CO)C[C@H]1C,inactive: 13.2%
7,C[C@@H]1CN([C@H](C)CO)C(=O)c2cc(C3=CCCCC3)cnc2O[C@@H]1CN(C)C(=O)Cc1cccnc1,active: 56%
8,CO[C@@H]1CN(C)C(=O)c2ccc(NC(=O)c3ccc(F)cc3)cc2OC[C@H](C)N(C(C)=O)C[C@@H]1C,inactive: 11.2%
9,COc1ccccc1CCn1cnc(-c2cccc(F)c2)c1C(C)C,inconclusive: 26.8%
10,C[C@@H]1CN([C@H](C)CO)C(=O)c2cc(NC(=O)CCCN(C)C)ccc2O[C@@H](C)CCCCO[C@H]1CN(C)S(=O)(=O)c1cccs1,active: 34.3%
11,COc1cccc(S(=O)(=O)N[C@@H]2CC[C@@H](CCn3cc(-c4ccccn4)nn3)O[C@H]2CO)c1,inconclusive: 21.5%
12,C[C@H]1CN([C@@H](C)CO)C(=O)c2cccc(NC(=O)c3ccncc3)c2O[C@@H]1CN(C)C(=O)Nc1ccc(C(F)(F)F)cc1,inactive: -8.44%
13,COc1ccc2[nH]c(C(=O)NCCc3ccccc3)cc2c1,inconclusive: 40%
14,CCC(=O)N1CC[C@@H]2[C@@H](CO)Nc3ccc(C#Cc4cccnc4)cc3[C@@H]21,inactive: -1.27%
15,CO[C@H]1CN(C)C(=O)c2cc(NC(=O)c3cccc(F)c3)ccc2OC[C@H](C)NC[C@@H]1C,inactive: -2.83%
16,C/C=C/c1ccc2c(c1)O[C@H](CN(C)C(=O)c1ccccc1F)[C@H](C)CN([C@@H](C)CO)S2(=O)=O,inconclusive: 41.7%
17,O=C(Nc1cc(F)ccc1F)N1CC(=O)N2[C@H](C1)[C@@H](c1ccc(C#CC3CCCCC3)cc1)[C@@H]2CO,inactive: -1.29%
18,Cc1noc(C)c1NC(=O)Nc1ccc2c(c1)CC(=O)N([C@@H](C)CO)C[C@@H](C)[C@H](CN(C)S(=O)(=O)c1cccs1)O2,inactive: 0.571%
19,CC1(C(=O)NS(=O)(=O)C2CC2)CCN(C(=O)c2cccc(OC(F)(F)F)c2)C1 (stereo unspecified),inconclusive: 34.8%
20,CCCCn1c(N)c(N(CCOC)C(=O)C2CCN(C(=O)c3ccccc3C)CC2)c(=O)[nH]c1=O,inconclusive: 28.8%
21,O=C1NC[C@H](CC2CCCCC2)N(CC2CCCCC2)C1=O,inconclusive: 20.9%
22,COc1ccc2c3c([nH]c2c1)[C@H](CO)N(Cc1nccs1)CC31CN(C(=O)C2CCCCC2)C1,inactive: -7.73%
23,CN(C)c1nc2c(c(=O)[nH]c(=O)n2C)n1CCCc1ccccc1,inconclusive: 47.9%

# Source: PubChem BioAssay AID651640 (Broad Institute, 2012)
